Binding data for three molecules are collected here from article doi:10.1101/2020.04.27.064162.

Sequences of proteins named here, by UniProt entry; tags and fusion partners are left off.
UniProt Q9NRN9, whole entry: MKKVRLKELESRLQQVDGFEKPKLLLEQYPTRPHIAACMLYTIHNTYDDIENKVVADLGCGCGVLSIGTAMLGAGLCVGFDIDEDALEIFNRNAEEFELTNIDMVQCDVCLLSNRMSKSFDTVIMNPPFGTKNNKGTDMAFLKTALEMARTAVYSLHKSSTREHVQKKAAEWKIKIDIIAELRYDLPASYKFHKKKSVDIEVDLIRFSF

The target in assay [1] is T1, TRMT112 (endogenous) (human (endogenous in 293T)) (UniProt Q9UI30).
T1 sequence: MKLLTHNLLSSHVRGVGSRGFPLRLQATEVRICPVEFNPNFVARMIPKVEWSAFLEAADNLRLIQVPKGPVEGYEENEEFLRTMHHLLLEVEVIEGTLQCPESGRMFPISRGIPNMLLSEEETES
In words: co-IP.

Assay [2] has as its target METTL5 (untagged, endogenous) (UniProt Q9NRN9). Kind of assay: co-IP.
Assay [3] addresses recombinant METTL5 (of the METTL5/TRMT112 complex) (UniProt Q9NRN9). Kind of assay: SEC. (In gel filtration, larger molecules generally elute earlier.)

Results are given in words; binding and its absence hold for the method and conditions named. For part of these data: In cells and extracts the contact can be indirect. Some results given as binding are weak or reduced against the parent protein; the word gives no strength.

Regarding “METTL5 (untagged, endogenous) (from UniProt Q9NRN9 1-209) (enzyme)”, the binding result in assay [1] is “binds”.

B1: TRMT112 (endogenous) (protein, UniProt Q9UI30 1-125)
chain: T1 sequence
Turning to B1, the binding result in assay [2] is listed as “binds”.

B2: recombinant TRMT112 (of the METTL5/TRMT112 complex) (protein, UniProt Q9UI30 1-125)
chain: T1 sequence
B2: the binding entry in assay [3] is “binds”.
